Data reported in article PMC10047809.
Results are given in words; binding and its absence hold for the method and conditions named. In cells and extracts the contact can be indirect. Some binding calls cover weakened binding; strength is not graded here.

Protein sequences, listed by entry. Tags and fused reporters are not part of them. Lines headed by an entry give the natural chain unless they say otherwise; changes in a name come on top. Chains listed by the source or under a name are the forms on record and can include a tag or linker. Residues count along the entry.
UniProt O15550: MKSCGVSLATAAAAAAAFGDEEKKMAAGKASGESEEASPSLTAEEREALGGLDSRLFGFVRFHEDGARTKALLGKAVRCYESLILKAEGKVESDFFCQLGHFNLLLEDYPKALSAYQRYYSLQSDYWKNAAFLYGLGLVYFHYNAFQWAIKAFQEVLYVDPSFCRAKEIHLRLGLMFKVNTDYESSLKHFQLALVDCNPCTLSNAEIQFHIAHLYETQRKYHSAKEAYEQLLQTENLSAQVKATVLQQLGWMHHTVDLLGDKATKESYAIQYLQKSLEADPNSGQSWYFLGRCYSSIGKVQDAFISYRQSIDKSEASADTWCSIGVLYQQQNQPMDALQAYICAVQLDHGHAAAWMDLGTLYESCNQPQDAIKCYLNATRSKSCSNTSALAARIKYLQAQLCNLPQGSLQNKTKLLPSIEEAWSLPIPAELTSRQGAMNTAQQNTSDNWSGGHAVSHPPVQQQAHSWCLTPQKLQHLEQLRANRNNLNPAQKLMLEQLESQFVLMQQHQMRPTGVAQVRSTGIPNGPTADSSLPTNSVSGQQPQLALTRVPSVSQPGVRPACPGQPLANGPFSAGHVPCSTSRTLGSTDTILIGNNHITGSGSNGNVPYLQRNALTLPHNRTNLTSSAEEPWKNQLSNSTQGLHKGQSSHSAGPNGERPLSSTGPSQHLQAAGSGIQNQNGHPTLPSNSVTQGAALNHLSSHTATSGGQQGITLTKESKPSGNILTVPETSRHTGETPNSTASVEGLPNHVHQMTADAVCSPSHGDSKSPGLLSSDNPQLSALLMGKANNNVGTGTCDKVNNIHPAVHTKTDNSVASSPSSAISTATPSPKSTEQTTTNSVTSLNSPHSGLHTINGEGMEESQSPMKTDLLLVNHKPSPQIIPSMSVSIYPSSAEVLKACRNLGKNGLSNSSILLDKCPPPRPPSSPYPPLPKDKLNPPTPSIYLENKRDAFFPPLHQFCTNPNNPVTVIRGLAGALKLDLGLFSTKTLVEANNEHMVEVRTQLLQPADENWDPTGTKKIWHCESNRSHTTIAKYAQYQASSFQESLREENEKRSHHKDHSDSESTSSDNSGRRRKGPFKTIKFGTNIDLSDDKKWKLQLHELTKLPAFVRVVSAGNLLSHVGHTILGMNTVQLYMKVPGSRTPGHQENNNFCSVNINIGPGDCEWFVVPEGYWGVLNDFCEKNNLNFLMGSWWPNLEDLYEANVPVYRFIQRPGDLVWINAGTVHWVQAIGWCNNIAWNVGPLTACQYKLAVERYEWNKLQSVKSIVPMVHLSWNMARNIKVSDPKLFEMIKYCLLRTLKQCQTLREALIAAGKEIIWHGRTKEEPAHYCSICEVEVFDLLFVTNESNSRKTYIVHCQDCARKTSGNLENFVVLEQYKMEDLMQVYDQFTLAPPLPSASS
FLAG-tagged truncated KDM6A, E895* mutant (as in the T24 cell line): residues 1-894 of O15550

What was measured:
[1] = molecular target: FLAG-tagged truncated KDM6A, E895* mutant (as in the T24 cell line) (UniProt O15550); test: co-IP; lysates of HEK293T cells 48 h after transfection with FLAG-KDM6A or FLAG-E895* KDM6A (untransfected cells as control); lysis buffer 50 mM Tris-HCl pH 7.4, 150 mM NaCl, 1 mM EDTA, 1% Triton X-100; bound overnight at 4 °C to anti-FLAG affinity gel, washed three times with TBS; Western blot for KDM6A, HES1 and TLE1/2/3/4
[2] = molecular target: FLAG-tagged full-length KDM6A (wild type) (UniProt O15550); test: as above

binding [1]: binds
binding [2]: binds
B1: HES1 (protein, UniProt Q14469 1-280)
chain: MPADIMEKNSSSPVAATPASVNTTPDKPKTASEHRKSSKPIMEKRRRARINESLSQLKTLILDALKKDSSRHSKLEKADILEMTVKHLRNLQRAQMTAALSTDPSVLGKYRAGFSECMNEVTRFLSTCEGVNTEVRTRLLGHLANCMTQINAMTYPGQPHPALQAPPPPPPGPGGPQHAPFAPPPPLVPIPGGAAPPPGGAPCKLGSQAGEAAKVFGGFQVVPAPDGQFAFLIPNGAFAHSGPVIPVYTSNSGTSVGPNAVSPSSGPSLTADSMWRPWRN
